Data: patent US20200048333A1 (THOMAS JEFFERSON UNIVERSITY, published 2020)
These are yes or no findings as the source states them, for the method shown. Some results given as binding are weak or reduced against the parent protein; the word gives no strength.

Amino acid sequences for entries named in this document (tags omitted). A change or cut given only in a name is not applied to a line headed by its entry.
UniProt P02452: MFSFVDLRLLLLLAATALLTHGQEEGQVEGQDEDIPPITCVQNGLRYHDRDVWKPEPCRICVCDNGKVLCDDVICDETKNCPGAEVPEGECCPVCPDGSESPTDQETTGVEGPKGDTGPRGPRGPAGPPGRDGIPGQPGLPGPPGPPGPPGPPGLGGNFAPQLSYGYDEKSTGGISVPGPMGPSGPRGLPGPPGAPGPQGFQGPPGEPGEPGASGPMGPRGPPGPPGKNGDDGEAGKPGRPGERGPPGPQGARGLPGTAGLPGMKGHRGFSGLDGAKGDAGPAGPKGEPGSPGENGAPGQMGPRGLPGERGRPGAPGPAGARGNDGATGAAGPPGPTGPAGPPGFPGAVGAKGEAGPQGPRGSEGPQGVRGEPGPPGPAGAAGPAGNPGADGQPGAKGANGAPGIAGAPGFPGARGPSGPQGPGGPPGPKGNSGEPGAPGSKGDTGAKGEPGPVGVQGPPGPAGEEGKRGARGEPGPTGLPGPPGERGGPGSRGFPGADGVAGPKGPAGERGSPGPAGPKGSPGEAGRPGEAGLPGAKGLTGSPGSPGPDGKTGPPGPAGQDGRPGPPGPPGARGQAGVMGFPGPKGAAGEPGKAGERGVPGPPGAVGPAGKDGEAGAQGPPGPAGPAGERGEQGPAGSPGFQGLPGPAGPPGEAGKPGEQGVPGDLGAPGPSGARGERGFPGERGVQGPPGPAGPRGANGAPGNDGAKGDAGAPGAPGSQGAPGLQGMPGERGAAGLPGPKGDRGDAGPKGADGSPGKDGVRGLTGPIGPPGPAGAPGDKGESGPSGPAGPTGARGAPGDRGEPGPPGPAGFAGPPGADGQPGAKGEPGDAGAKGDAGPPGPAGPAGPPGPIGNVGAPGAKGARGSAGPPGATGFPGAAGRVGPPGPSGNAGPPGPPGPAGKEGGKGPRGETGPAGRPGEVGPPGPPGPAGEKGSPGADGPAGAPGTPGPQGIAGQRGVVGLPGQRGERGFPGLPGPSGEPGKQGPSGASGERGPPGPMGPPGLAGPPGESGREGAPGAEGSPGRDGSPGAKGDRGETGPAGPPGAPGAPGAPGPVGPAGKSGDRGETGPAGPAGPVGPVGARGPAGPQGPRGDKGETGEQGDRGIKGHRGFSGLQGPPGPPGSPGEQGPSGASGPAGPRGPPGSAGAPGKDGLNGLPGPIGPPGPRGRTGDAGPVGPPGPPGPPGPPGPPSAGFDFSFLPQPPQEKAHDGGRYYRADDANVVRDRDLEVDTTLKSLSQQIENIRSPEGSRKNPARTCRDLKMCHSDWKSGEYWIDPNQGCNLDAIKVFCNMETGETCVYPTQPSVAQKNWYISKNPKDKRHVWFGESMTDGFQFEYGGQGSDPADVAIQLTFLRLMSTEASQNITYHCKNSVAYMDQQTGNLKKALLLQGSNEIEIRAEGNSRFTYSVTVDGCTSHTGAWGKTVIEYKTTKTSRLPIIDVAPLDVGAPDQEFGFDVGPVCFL
UniProt P08123: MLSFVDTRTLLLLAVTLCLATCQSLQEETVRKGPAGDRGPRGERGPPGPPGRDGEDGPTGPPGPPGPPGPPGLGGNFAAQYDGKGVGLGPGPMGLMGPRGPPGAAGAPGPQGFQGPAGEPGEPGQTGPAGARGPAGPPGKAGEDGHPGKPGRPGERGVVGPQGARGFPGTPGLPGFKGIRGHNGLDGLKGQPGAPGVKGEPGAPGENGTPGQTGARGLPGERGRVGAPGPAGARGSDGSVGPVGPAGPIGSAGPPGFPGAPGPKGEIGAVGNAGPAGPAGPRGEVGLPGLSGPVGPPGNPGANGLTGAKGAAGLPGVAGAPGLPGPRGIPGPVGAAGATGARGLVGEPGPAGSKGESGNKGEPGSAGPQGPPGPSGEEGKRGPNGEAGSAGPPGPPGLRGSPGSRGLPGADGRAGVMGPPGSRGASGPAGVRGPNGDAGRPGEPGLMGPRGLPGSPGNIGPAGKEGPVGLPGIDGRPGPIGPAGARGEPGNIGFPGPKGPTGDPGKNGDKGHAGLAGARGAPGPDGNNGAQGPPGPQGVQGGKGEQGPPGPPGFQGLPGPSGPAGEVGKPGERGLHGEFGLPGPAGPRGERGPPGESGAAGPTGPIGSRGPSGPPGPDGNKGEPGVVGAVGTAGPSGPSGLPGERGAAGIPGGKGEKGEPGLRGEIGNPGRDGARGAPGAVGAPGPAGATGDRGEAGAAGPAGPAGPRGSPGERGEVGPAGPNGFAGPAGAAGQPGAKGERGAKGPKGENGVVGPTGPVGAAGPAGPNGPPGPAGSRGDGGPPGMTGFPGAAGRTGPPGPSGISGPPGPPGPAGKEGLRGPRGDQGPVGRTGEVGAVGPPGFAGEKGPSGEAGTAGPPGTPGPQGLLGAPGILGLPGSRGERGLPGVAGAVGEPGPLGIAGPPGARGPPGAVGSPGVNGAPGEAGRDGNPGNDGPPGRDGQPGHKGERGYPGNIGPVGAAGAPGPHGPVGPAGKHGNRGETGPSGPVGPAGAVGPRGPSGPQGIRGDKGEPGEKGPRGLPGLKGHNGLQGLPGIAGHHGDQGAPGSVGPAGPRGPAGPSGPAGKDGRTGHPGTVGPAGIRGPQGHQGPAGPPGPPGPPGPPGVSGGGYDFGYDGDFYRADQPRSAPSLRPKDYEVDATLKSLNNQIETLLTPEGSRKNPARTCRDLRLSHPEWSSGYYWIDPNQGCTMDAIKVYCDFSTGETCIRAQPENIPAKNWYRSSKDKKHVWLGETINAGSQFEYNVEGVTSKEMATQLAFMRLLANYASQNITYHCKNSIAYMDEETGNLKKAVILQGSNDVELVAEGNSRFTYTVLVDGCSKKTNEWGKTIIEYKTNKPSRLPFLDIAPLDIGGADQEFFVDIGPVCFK

What was measured:
GYDGDF = biological target: T1, GYDGDF (also: biotinylated (position not given here)); experiment: blot: antibody variant immobilized on nitrocellulose, biotinylated peptide bound, chemiluminescence
T1 construct: also called biotinylated α2Ct peptide GYDGDF
T1 peptide: GYDGDF

GDFYRA = biological target: T2, GDFYRA (also: biotinylated (position not given here)); experiment: as above
T2 construct: also called biotinylated α2Ct peptide GDFYRA
T2 peptide: GDFYRA

[1] = biological target: human procollagen I isolated from human dermal fibroblasts (human) (UniProt P02452+P08123); experiment: biosensor; procollagen I immobilized, scFv injected at various concentrations (panel head: native α2Ct present in collagen I)
α2Ct fragment DFGYD = biological target: T3, α2Ct fragment DFGYD (human); experiment: biosensor
T3 construct: One of the overlapping peptides spanning the human α2Ct
T3 peptide: DFGYD

α2Ct fragment DGDFY = biological target: T4, α2Ct fragment DGDFY (human); experiment: biosensor
T4 construct: One of the overlapping peptides spanning the human α2Ct; also called A2_DGDFY
T4 peptide: DGDFY

α2Ct fragment GYDFG = biological target: T5, α2Ct fragment GYDFG (human); experiment: biosensor
T5 construct: One of the overlapping peptides spanning the human α2Ct
T5 peptide: GYDFG

α2Ct fragment DFYRA = biological target: T6, α2Ct fragment DFYRA (human); experiment: biosensor
T6 construct: One of the overlapping peptides spanning the human α2Ct
T6 peptide: DFYRA

α2Ct fragment GYDGD = biological target: T7, α2Ct fragment GYDGD (human); experiment: biosensor
T7 construct: One of the overlapping peptides spanning the human α2Ct
T7 peptide: GYDGD

Measured: binding

B1: scFv variant of the AFA consisting of the VL and VH domains connected via a peptide linker (scFv, V domains shown, not shown: small tags and cut ends)
VL: DIVMSQSPSSLAVSAGEKVTMSCKSSQSLLNSRTRKNNLAWYQQKPGQSPKLLIYWASTRESGVPDRFTGSGSGTDFTLTISSVQAEDLAVYYCKQSYNLWTFGGGTKLEIKR
V domain: AQIQLVQSGPELKKPGETVKISCKASGYTFTDYPLHWVKQAPGKGLQWMAWINTETGEPTYADDFTGRFAFSLETSASTAYLQINNLKNEDTATYFCVRGYYYYWGQGTTLSVSS
notes: The domain order VL-linker-VH follows the wording 'VL and VH domains connected via a peptide linker'; also called single chain antibody
binds: GYDGDF | GDFYRA | [1]

B2: full-length anti-fibrotic antibody (AFA), monoclonal anti-collagen I antibody against the α2(I) C-telopeptide (antibody, V domains shown)
VH: AQIQLVQSGPELKKPGETVKISCKASGYTFTDYPLHWVKQAPGKGLQWMAWINTETGEPTYADDFTGRFAFSLETSASTAYLQINNLKNEDTATYFCVRGYYYYWGQGTTLSVSS
VL: DIVMSQSPSSLAVSAGEKVTMSCKSSQSLLNSRTRKNNLAWYQQKPGQSPKLLIYWASTRESGVPDRFTGSGSGTDFTLTISSVQAEDLAVYYCKQSYNLWTFGGGTKLEIKR
notes: The control was human IgG; also called full-length AFA; Full-length AFA antibody
binds: α2Ct fragment DFGYD | α2Ct fragment DGDFY | α2Ct fragment GYDFG | α2Ct fragment DFYRA | α2Ct fragment GYDGD
